# Experimental data published in patent US20250090507A1, “Methods of Treating Cancer With a B-RAF Inhibitor” (MapKure, LLC, priority 2022, published 2025).
# Tested on: patients with tumors harboring B-RAF or K-RAS/N-RAS mutations
# Test: Phase 1 study: tumor response by investigators using RECIST v1.1
# Assay type: in vivo, human
# Conditions: 42 patients
# Description: Objective response rate was defined as the proportion of patients who had confirmed CR or PR, assessed by the investigator using RECIST v1.1.
# Clinical benefit rate was defined as the proportion of patients with best overall response (BOR) of confirmed CR, PR, or SD lasting ≥16 weeks.
# Tumor imaging were performed within 21 days prior to the first study treatment. Results of standard of care tests or examinations performed prior to obtaining informed consent and ≤21 days prior to the first administration of IMP may be used for the purposes of screening rather than repeating the standard of care tests. During the study, tumor imaging was performed approximately every 8 (±1) weeks in the first year and approximately every 12 (±1) weeks thereafter. Tumor assessments were required to be performed on schedule regardless of whether study treatment has been administered or held.
# Tumor response was assessed by the investigators using RECIST v1.1. The same evaluator should perform assessments, if possible, to ensure internal consistency across visits.
# For the analysis of ORR, DCR, and CBR, summary tables presenting the number and proportion of responders with the 2-sided exact (Clopper-Pearson) 95% CI for response rates were presented. […]
# Treatment emergent adverse events (TEAEs) were graded per NCI CTCAE v5.0. Tumor responses were assessed by investigators using RECIST v1.1.
structure (smiles),measurement,value
"O=C1CCc2c(Oc3ccc4c(c3)[C@H]3[C@H](NC(=O)Nc5cc(F)c(F)cc5F)[C@H]3O4)ccnc2N1 [Compound A, 1-((1S,1aS,6bS)-5-((7-oxo-5,6,7,8-tetrahydro-1,8-naphthyridin-4-yl)oxy)-1a,6b-dihydro-1H-cyclopropa[b]benzofuran-1-yl)-3-(2,4,5-trifluorophenyl)urea]",Median time on treatment,approximately 5 months
same,"Time on treatment, range",1.9-23.6 months
